Reference: PubChem BioAssay AID504774 (Drosophila RNAi Screening Center, 2011)
The screen tested about 23,000 reagents; shown is a random part of those that have a named target and a result. 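Values are quantile-normalised luminescence on an arbitrary scale; higher means more cells surviving MMS.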 Reagents against one gene are numbered here. Names joined by + are all predicted targets of the reagent. Further read-outs or replicates are left out here.

Test: 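Fly genes whose loss alters survival after alkylation damage to DNA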 (primary screen)
Cell system: Drosophila Kc167 cells
Knock-down reagent: long dsRNA against Drosophila genes, about 0.25 µg dsRNA per well
Duration: about 6 days: 3 days knock-down, then 3 days with or without MMS
Challenge: methyl methanesulphonate 0.004% (w/v) for 3 days after knock-down
Measured: 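Viability in wells given MMS, read as ATP luminescence, normalised by quantiles plate by plate and averaged across replicates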
Reading the numbers: mean viability with MMS: higher = more surviving cells after MMS

For l(2)k09913 (lethal (2) k09913), how do the results read?
mean viability with MMS: 3.67e6

What did the screen give for CG18585?
mean viability with MMS: 3.61e6

With CG32591, what was measured?
mean viability with MMS: 3.41e6

For CG13135, what does the deposit list?
mean viability with MMS: 3.53e6

How did the screen score CG16986?
mean viability with MMS: 3.71e6

For CG3635, how do the results read?
mean viability with MMS: 3.61e6

For CG32110, what does the deposit list?
mean viability with MMS: 3.54e6

How did the screen score CG34221?
mean viability with MMS: 3.51e6

For RpL35 (Ribosomal protein L35), what was measured?
mean viability with MMS: 3.12e6

How did the screen score CG4229?
mean viability with MMS: 3.46e6

How did the screen score CG8272?
mean viability with MMS: 3.60e6

What did the screen give for alpha-Est4 (alpha-Esterase-4)?
mean viability with MMS: 3.57e6

With kuz (kuzbanian), how do the results read?
mean viability with MMS: 3.77e6

With Acp63F (Accessory gland protein 63F), what does the deposit list?
mean viability with MMS: 3.60e6

How did the screen score Df31 (Decondensation factor 31) #1?
mean viability with MMS: 3.60e6

With Df31 (Decondensation factor 31) #2, what was measured?
mean viability with MMS: 3.68e6

What did the screen give for Hr3 (Hormone receptor 3) #1?
mean viability with MMS: 3.17e6

With Hr3 (Hormone receptor 3) #2, how do the results read?
mean viability with MMS: 3.67e6

For SamDC (S-adenosylmethionine decarboxylase), what does the deposit list?
mean viability with MMS: 3.67e6

Copied from the list:
Entry of CG4229 in “mean viability with MMS”: 3.46e6
RpL35 (Ribosomal protein L35), mean viability with MMS: 3.12e6
Value of CG3635 under “mean viability with MMS”: 3.61e6

Further reagents follow.
With CG30413, what was measured?
mean viability with MMS: 3.60e6

With Hsp68 (Heat shock protein 68), what was measured?
mean viability with MMS: 3.65e6

With snoRNA:Me28S-C3227a + snoRNA:Me18S-A1061 + snoRNA:Me28S-C3227b + 7 more, how do the results read?
mean viability with MMS: 3.57e6

For CG34282, what was measured?
mean viability with MMS: 3.59e6

With Plzf (Promyelocytic leukemia zinc finger), what does the deposit list?
mean viability with MMS: 3.55e6

For ps (pasilla) #1, what does the deposit list?
mean viability with MMS: 3.57e6

For ps (pasilla) #2, how do the results read?
mean viability with MMS: 3.17e6

What is on record for ps (pasilla) #3?
mean viability with MMS: 3.20e6

What is on record for ps (pasilla) #4?
mean viability with MMS: 3.58e6

Which result is listed for ps (pasilla) #5?
mean viability with MMS: 3.48e6

How did the screen score CG5377?
mean viability with MMS: 3.37e6

With CG32054, what does the deposit list?
mean viability with MMS: 3.47e6

How did the screen score Sema2b (Semaphorin 2b) #1?
mean viability with MMS: 3.47e6

With Sema2b (Semaphorin 2b) #2, how do the results read?
mean viability with MMS: 3.49e6

For Sema2b (Semaphorin 2b) #3, how do the results read?
mean viability with MMS: 3.74e6

For D12, what was measured?
mean viability with MMS: 3.32e6
